The record followed here is article doi:10.1101/347179.

Sequences of proteins named here, by UniProt entry; tags and fusion partners are left off. Residues count along the entry.
UniProt P37198: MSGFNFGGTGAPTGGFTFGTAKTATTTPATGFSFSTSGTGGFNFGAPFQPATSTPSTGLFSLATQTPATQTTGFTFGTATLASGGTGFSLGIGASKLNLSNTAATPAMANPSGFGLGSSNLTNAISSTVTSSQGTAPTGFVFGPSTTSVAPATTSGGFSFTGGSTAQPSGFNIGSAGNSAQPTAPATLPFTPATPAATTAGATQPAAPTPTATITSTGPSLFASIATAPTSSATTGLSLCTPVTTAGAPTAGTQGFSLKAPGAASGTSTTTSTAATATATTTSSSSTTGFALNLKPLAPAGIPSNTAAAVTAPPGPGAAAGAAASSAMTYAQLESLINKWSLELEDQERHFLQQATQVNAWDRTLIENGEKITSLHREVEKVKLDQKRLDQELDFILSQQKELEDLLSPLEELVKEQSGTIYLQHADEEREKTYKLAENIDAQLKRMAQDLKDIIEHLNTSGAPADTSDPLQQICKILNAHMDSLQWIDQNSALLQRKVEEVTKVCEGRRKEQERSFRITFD
UniProt P52948, residues 1-880: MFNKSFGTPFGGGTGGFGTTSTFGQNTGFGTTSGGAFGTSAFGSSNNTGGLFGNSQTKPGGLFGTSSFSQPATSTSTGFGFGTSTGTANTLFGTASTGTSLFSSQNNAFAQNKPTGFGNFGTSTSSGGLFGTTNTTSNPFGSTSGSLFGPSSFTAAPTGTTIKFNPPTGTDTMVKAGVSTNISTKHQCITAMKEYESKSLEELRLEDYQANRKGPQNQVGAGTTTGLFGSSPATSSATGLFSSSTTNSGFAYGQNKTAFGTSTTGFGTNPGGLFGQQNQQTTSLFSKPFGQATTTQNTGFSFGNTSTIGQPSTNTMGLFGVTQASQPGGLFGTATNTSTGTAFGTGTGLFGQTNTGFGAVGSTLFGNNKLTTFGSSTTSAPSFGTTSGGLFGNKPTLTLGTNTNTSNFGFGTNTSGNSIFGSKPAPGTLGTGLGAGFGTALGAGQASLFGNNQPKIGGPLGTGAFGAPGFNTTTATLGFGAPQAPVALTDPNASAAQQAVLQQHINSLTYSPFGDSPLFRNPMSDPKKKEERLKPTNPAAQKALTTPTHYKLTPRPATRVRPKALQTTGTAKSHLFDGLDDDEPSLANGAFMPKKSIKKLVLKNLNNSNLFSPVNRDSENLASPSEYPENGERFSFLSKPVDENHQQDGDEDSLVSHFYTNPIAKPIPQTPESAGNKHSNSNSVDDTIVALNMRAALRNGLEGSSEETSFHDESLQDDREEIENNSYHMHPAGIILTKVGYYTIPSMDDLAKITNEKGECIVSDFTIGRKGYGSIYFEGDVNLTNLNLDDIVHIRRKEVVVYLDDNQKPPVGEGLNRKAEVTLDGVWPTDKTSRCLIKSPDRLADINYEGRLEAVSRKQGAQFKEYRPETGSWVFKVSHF

Holding throughout (assay): co-IP
Test [1] concerns the target T1, GFP-NUP88 p.D434Y (human) (UniProt Q99567).
T1 sequence: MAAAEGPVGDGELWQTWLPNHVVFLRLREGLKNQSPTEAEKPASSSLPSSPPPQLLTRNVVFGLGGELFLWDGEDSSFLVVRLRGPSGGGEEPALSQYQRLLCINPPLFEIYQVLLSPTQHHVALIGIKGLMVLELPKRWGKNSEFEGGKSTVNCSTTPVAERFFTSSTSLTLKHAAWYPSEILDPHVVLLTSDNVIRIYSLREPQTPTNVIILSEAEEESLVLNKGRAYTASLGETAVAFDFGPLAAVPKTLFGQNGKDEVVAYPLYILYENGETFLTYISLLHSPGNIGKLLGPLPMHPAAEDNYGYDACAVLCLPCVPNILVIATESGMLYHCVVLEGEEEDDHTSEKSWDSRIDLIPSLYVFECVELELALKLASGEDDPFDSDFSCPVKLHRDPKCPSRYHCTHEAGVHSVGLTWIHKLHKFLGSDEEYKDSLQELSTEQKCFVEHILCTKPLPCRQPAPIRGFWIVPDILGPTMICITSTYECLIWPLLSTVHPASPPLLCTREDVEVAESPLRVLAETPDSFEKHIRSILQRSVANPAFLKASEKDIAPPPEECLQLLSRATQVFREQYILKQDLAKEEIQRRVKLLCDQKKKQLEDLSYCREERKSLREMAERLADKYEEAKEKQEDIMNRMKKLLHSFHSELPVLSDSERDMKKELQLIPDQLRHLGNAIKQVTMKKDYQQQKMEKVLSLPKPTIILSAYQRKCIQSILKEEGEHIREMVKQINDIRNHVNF

Test [2] concerns the target T2, GFP-NUP88 p.E634del (human) (UniProt Q99567).
T2 sequence: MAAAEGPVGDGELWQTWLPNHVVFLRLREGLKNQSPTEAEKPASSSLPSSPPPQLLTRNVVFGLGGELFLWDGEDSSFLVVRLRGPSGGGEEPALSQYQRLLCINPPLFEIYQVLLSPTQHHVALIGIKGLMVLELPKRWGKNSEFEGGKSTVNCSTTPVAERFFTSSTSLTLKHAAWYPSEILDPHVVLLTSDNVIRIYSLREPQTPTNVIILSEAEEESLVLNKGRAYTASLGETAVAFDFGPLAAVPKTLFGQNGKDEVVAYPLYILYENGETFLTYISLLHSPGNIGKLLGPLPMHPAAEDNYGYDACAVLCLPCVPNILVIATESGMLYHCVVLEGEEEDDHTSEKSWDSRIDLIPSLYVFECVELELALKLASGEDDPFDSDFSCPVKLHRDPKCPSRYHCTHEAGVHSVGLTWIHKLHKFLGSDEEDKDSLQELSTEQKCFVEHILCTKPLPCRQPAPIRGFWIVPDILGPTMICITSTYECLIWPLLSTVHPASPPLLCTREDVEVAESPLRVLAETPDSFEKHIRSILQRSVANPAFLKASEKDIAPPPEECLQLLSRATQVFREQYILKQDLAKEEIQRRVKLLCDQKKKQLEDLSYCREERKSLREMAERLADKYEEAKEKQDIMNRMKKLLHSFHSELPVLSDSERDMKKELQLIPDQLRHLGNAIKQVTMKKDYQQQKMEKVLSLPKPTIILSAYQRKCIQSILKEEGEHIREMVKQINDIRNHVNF

Test [3] addresses T3, GFP-NUP88 p.R509* (human) (UniProt Q99567).
T3 sequence: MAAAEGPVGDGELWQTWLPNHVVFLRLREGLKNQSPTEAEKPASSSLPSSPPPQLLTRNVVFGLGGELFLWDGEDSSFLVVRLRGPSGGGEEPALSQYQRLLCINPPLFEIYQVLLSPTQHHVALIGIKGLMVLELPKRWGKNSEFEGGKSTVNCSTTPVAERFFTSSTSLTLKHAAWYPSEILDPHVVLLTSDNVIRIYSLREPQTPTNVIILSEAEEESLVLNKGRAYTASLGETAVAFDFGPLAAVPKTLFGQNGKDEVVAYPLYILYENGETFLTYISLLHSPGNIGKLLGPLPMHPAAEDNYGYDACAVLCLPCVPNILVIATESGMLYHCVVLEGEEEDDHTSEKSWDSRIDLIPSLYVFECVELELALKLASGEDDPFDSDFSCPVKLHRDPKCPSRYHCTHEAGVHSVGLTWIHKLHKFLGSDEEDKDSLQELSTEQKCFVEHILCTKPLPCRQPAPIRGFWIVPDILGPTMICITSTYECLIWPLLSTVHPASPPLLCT

Test [4] concerns the target T4, GFP-NUP88 wild-type (human) (UniProt Q99567).
T4 sequence: T1 sequence with Y434D

Numbering of substitutions follows the chain as printed. These are yes or no findings as the source states them, for the method shown. In cells and extracts the contact can be indirect. Some entries that bind do so weakly or less than the wild type. Where a sequence is shown, tags or fusion partners need not be part of it.

As for NUP62 (from UniProt P37198 1-522), the binding result in test [1] is given as “binds”; in test [2] it was “no binding”; in test [3], “no binding”; in test [4], “binds”.
As to NUP98 (from UniProt P52948 1-880), the binding entry in test [1], in test [2], in test [3] and in test [4] was “binds” throughout.
